These are yes or no findings as the source states them, for the method shown. In cells and extracts the contact can be indirect. Some binding calls cover weakened binding; strength is not graded here.

For assay [1], the target named is p100AmotL2 (endogenous in MDCK cells) (dog (endogenous in MDCK)). The experiment in a line: co-IP; MDCK p60AmotL2 cells without Dox (p60AmotL2 not induced); p100AmotL2 precipitated with p100-specific antibody and protein G Sepharose, overnight at 4 °C; lysis buffer 50 mM Hepes, 150 mM NaCl, 1.5 mM MgCl2, 1 mM EGTA, 10% glycerol, 1% TritonX-100; Western blot.
Assay [2] shares this target. Put plainly: co-IP; MDCK p60AmotL2 cells with Dox (p60AmotL2 induced); p100AmotL2 precipitated with p100-specific antibody and protein G Sepharose, overnight at 4 °C; lysis buffer 50 mM Hepes, 150 mM NaCl, 1.5 mM MgCl2, 1 mM EGTA, 10% glycerol, 1% TritonX-100; Western blot. (Immunoblotting shows a protein as a band on a membrane.)

B1: β-catenin (endogenous in MDCK cells) (protein, UniProt B6V8E6 1-781)
chain: MATQADLMELDMAMEPDRKAAVSHWQQQSYLDSGIHSGATTTAPSLSGKGNPEEEDVDTTQVLYEWEQGFSQSFTQEQVADIDGQYAMTRAQRVRAAMFPETLDEGMQIPSTQFDAAHPTNVQRLAEPSQMLKHAVVNLINYQDDAELATRAIPELTKLLNDEDQVVVNKAAVMVHQLSKKEASRHAIMRSPQMVSAIVRTMQNTNDVETARCTAGTLHNLSHHREGLLAIFKSGGIPALVKMLGSPVDSVLFYAITTLHNLLLHQEGAKMAVRLAGGLQKMVALLNKTNVKFLAITTDCLQILAYGNQESKLIILASGGPQALVNIMRTYTYEKLLWTTSRVLKVLSVCSSNKPAIVEAGGMQALGLHLTDPSQRLVQNCLWTLRNLSDAATKQEGMEGLLGTLVQLLGSDDINVVTCAAGILSNLTCNNYKNKMMVCQVGGIEALVRTVLRAGDREDITEPAICALRHLTSRHQEAEMAQNAVRLHYGLPVVVKLLHPPSHWPLIKATVGLIRNLALCPANHAPLREQGAIPRLVQLLVRAHQDTQRRTSMGGTQQQFVEGVRMEEIVEGCTGALHILARDVHNRIVIRGLNTIPLFVQLLYSPIENIQRVAAGVLCELAQDKEAAEAIEAEGATAPLTELLHSRNEGVATYAAAVLFRMSEDKPQDYKKRLSVELTSSLFRTEPMAWNETADLGLDIGAQGEPLGYRQDDPSYRSFHSGGYGQDALGMDPMMEHEMGGHHPGADYPVDGLPDLGHAQDLMDGLPPGDSNQLAWFDTDL
In the case of B1, the binding entry is given as “binds” in assay [1] and “no binding (condition: with p60AmotL2 induced (Dox))” in assay [2].

The values are drawn from PMC10340588.
